Measurements reported in PubChem BioAssay AID1671195 (Yale University, 2021)

- Assay: 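Genes whose knockdown alters LDL uptake in liver cancer cells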 (primary screen)
- Cell system: human Huh7 hepatoma cells
- Knock-down reagent: siRNA pool against human genes, 18 nM
- Time to read-out: about 2 to 2.5 days of knockdown, then 8 h LDL uptake
- Conditions: DiI-labelled LDL at 30 µg/ml for 8 h, in lipoprotein-deficient serum medium
- Measured: 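Fluorescent LDL signal imaged in cells, scaled to the plate median, robust z-score for each replicate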
- Direction: robust z-score: higher = more LDL uptake after knockdown
- Rule for the call: 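Active when two or more replicates show a robust z-score above 2 or below -2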
The whole screen tested about 22,000 reagents; below is an unselected part. About 1,510 of them (6.9%) count as active. 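Active includes knockdowns raising or lowering LDL uptake; positive z-scores mean more uptake, negative mean less.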 No sequences are given here.

| robust z-score, replicate 1 | robust z-score, replicate 2 | robust z-score, replicate 3 | Outcome | gene knocked down | PubChem SID |
| --- | --- | --- | --- | --- | --- |
| -1.56 | -2.08 | -1.41 | inactive | LOC140103 (retired record) | SID442904516 |
| 1.6 | 0.502 | 0.486 | inactive | ZNF679 (zinc finger protein 679) | SID442887690 |
| -0.624 | -0.978 | -0.125 | inactive | GABRB2 (gamma-aminobutyric acid type A receptor subunit beta2) | SID442899093 |
| 1.01 | 0.6 | 0.673 | inactive | LINC00705 (long independently transcribed non-coding RNA 705) | SID442888229 |
| -1.36 | -0.645 | -0.726 | inactive | TM2D3 (TM2 domain containing 3) | SID442901520 |
| -0.869 | -0.0113 | -1.43 | inactive | CIB1 (calcium and integrin binding 1) | SID442900514 |
| -0.181 | -0.119 | -0.521 | inactive | ITM2C (integral membrane protein 2C) | SID442896437 |
| -1.26 | -0.587 | -0.395 | inactive | OR51E2 (olfactory receptor family 51 subfamily E member 2) | SID442900328 |
| -1.07 | -0.622 | -0.499 | inactive | PACSIN1 (protein kinase C and casein kinase substrate in neurons 1) | SID442900218 |
| 0.785 | 0.241 | 0.722 | inactive | PF4V1 (platelet factor 4 variant 1) | SID442889295 |
| -0.291 | -0.447 | -0.46 | inactive | CMTM2 (CKLF like MARVEL transmembrane domain containing 2) | SID442897563 |
| -0.446 | 0.147 | -0.883 | inactive | CYC1 (cytochrome c1) | SID442897510 |
| -0.26 | 0.00124 | 0.127 | inactive | LOC389081 (retired record) | SID442894266 |
| -0.296 | -0.35 | -0.409 | inactive | GLUD2 (glutamate dehydrogenase 2) | SID442897144 |
| -0.566 | -0.945 | -0.768 | inactive | GTF2F2 (general transcription factor IIF subunit 2) | SID442900445 |
| -0.906 | -0.371 | -0.451 | inactive | PCDHB4 (protocadherin beta 4) | SID442899100 |
| -0.0515 | 0.248 | -0.143 | inactive | SLC35B4 | SID442893722 |
| 0.527 | 0.242 | 0.618 | inactive | TEX264 (testis expressed 264, ER-phagy receptor) | SID442890114 |
| -0.697 | -0.43 | -0.68 | inactive | ZNF764 (zinc finger protein 764) | SID442899303 |
| -0.0611 | 1.16 | -0.382 | inactive | FEV (FEV transcription factor, ETS family member) | SID442891853 |
| -0.867 | -0.553 | -0.575 | inactive | SLC2A1-DT (SLC2A1 divergent transcript) | SID442899763 |
| -0.445 | -0.677 | -0.19 | inactive | PRSS47P (serine protease 47, pseudogene) | SID442897903 |
| -0.142 | 0.441 | -0.0902 | inactive | KRT28 (keratin 28) | SID442893266 |
| -0.8 | -1.62 | -1.88 | inactive | CXCL12 (C-X-C motif chemokine ligand 12) | SID442903919 |
| 1.07 | 1.62 | 1.7 | inactive | GAPT (GRB2 binding adaptor protein, transmembrane) | SID442885563 |
| 0.957 | 1.12 | -0.86 | inactive | RGP1 (RGP1 partner of RAB6A GEF complex) | SID442890530 |
| 1.2 | -0.659 | -0.207 | inactive | SH2D3C (SH2 domain containing 3C) | SID442892900 |
| 0.881 | 0.922 | 1.26 | inactive | MLLT3 (MLLT3 super elongation complex subunit) | SID442886960 |
| 0.617 | 0.954 | 0.828 | inactive | RPLP1P3 (ribosomal protein lateral stalk subunit P1 pseudogene 3) | SID442888001 |
| 0.311 | 1.03 | 0.705 | inactive | KCNG3 | SID442888663 |
| -1.27 | -1.13 | -1.15 | inactive | MDH1 (malate dehydrogenase 1) | SID442902951 |
| -1.51 | -1.37 | -1.17 | inactive | ZNF135 (zinc finger protein 135) | SID442903660 |
| -0.268 | 0.883 | -0.229 | inactive | DRD3 (dopamine receptor D3) | SID442892749 |
| 3.62 | 5.23 | 2.46 | active | ULK1 (unc-51 like autophagy activating kinase 1) | SID442883225 |
| -1.77 | -1.79 | -1.77 | inactive | OVOL2 (ovo like zinc finger 2) | SID442904646 |
| -1.15 | -1.31 | -1.31 | inactive | LOC400651 (retired record) | SID442903261 |
| -0.567 | -0.363 | -0.717 | inactive | TP53BP2 (tumor protein p53 binding protein 2) | SID442898878 |
| 0.674 | 0.484 | 0.78 | inactive | ZNF273 (zinc finger protein 273) | SID442888884 |
| -0.0171 | 0.117 | -0.596 | inactive | ZFAS1 (ZNFX1 antisense RNA 1) | SID442895401 |

Entries listed so far with an active call, once more:
| robust z-score, replicate 1 | robust z-score, replicate 2 | robust z-score, replicate 3 | Outcome | gene knocked down | PubChem SID |
| --- | --- | --- | --- | --- | --- |
| 3.62 | 5.23 | 2.46 | active | ULK1 (unc-51 like autophagy activating kinase 1) | SID442883225 |

The listing continues.
| robust z-score, replicate 1 | robust z-score, replicate 2 | robust z-score, replicate 3 | Outcome | gene knocked down | PubChem SID |
| --- | --- | --- | --- | --- | --- |
| -0.501 | -0.161 | 0.191 | inactive | LOC441465 (retired record) | SID442895311 |
| -0.484 | -0.606 | -0.117 | inactive | LOC730118 | SID442897591 |
| 1.34 | 1.57 | 1.37 | inactive | ARHGEF3 (Rho guanine nucleotide exchange factor 3) | SID442885640 |
| -0.921 | -1.21 | -1.02 | inactive | HTR1F (5-hydroxytryptamine receptor 1F) | SID442902309 |
| -1.23 | -0.935 | -1.13 | inactive | LOC283530 (retired record) | SID442902519 |
| 0.874 | 0.16 | 0.311 | inactive | MGAT1 | SID442890212 |
| -1.22 | -1.06 | -1.05 | inactive | PRDM5 (PR/SET domain 5) | SID442902603 |
| 0.361 | 0.128 | 0.156 | inactive | ZNF438 (zinc finger protein 438) | SID442892047 |
| -0.567 | -0.771 | -0.0418 | inactive | SLC2A5 | SID442898088 |
| -0.731 | 0.113 | -0.322 | inactive | KIF1C (kinesin family member 1C) | SID442896791 |
| -0.895 | -1.2 | -0.737 | inactive | HOXD4 (homeobox D4) | SID442901707 |
| 0.89 | 1.49 | 0.564 | inactive | AK5 (adenylate kinase 5) | SID442887124 |
| -0.0824 | -0.0759 | -0.3 | inactive | USP6 (ubiquitin specific peptidase 6) | SID442895276 |
| 0.0313 | -0.0805 | 0.158 | inactive | TEX47 (testis expressed 47) | SID442893559 |
| 0.857 | 0.613 | 0.661 | inactive | LOC442250 (retired record) | SID442888484 |
| 0.547 | 1.73 | 1.33 | inactive | OVCH1 (ovochymase 1) | SID442886291 |
| 1.29 | 1.29 | 0.452 | inactive | LRRC56 (leucine rich repeat containing 56) | SID442886991 |
| 2.33 | 2.44 | 2.27 | active | NUDT18 (nudix hydrolase 18) | SID442883763 |
| -0.281 | 0.297 | 0.876 | inactive | NFASC (neurofascin) | SID442891346 |
| 0.551 | 0.854 | -0.685 | inactive | TP53TG5 (TP53 target 5) | SID442891835 |
| -2.29 | -2.75 | -2.72 | active | KRTAP13-4 (keratin associated protein 13-4) | SID442884570 |
| 0.18 | 0.667 | 0.299 | inactive | GAGE1 (G antigen 1) | SID442890691 |
| -1.1 | -0.73 | 0.72 | inactive | PAGE1 (PAGE family member 1) | SID442897288 |
| -2.07 | -1.87 | -1.87 | inactive | VSTM2L (V-set and transmembrane domain containing 2 like) | SID442884752 |
| 0.438 | 0.906 | 0.701 | inactive | LOC389831 | SID442888665 |
| 0.511 | 2.66 | 1.08 | inactive | SERPING1 (serpin family G member 1) | SID442885664 |
| -0.913 | -1.52 | 0.349 | inactive | TNFRSF21 (TNF receptor superfamily member 21) | SID442899996 |
| 1.2 | 1.21 | 1.18 | inactive | LOC400622 | SID442886311 |
| -0.837 | 0.0113 | 1.14 | inactive | ZNF415 (zinc finger protein 415) | SID442892948 |
